Where a name gives a salt, the structure may show the parent alone. ± gives the standard deviation of the averaged measurements. Whole data set: some 1,800 compounds, median “GFP- (p16Ink4a-) cell count relative to negative-control wells” near 0.99, cut for the lowest 2% near 0.5. The list shows a part of the results.

For the test, the system named is mouse p16Ink4a+/- lung fibroblasts (INKBRITE, bleomycin-injured). Put plainly: GFP- (p16Ink4a-) cell count relative to negative-control wells (fold of vehicle); higher = more p16Ink4a- cells surviving. Conditions: 1 µM; 3 days.
The compound `Cc1ccccc1C(OCCN(C)C)c1ccccc1` (stereo not given) [Orphenadrine] gave a GFP- of 1.11.
`Nc1nc(N)c(N=O)c(OCC2CCCCC2)n1` yielded a GFP- of 1.07.
The value for `OCc1ccc(-c2ccc(-c3ccc(CO)s3)o2)s1` was 0.955; that for `NS(=O)(=O)c1cc2c(cc1Cl)NCNS2(=O)=O` [Hydrochlorothiazide] was 1.06.
On to `NCC(=O)Nc1ccc(-n2nc(C(F)(F)F)cc2-c2ccc3c(ccc4ccccc43)c2)cc1`, for which the GFP- worked out at 1.1.
`C1N2CN3CN1CN(C2)C3` [Hexamethylenetetramine] came in with a GFP- of 1.03.
The value for `CC[C@H](c1ccc(O)cc1)[C@@H](CC)c1ccc(O)cc1` [Hexestrol] was 1.07; that for `NC1=N[C@@]2(c3cc(NC(=O)c4ccc(F)cn4)ccc3F)COC[C@H]2CS1` was 0.991.
The value for `Cc1nccn1CC1CCc2c(c3ccccc3n2C)C1=O` (stereo not given) [Ondansetron] was 1.06.
Regarding `Oc1cccc(-c2nc(N3CCOCC3)c3oc4ncccc4c3n2)c1`, the GFP- worked out at 0.8.
The value for `COc1cc2c(cc1O)CC[C@@H]1[C@@H]2CC[C@]2(C)[C@@H](O)CC[C@@H]12` [2-Methoxyestradiol] was 0.777 ± 0.2.
In turn, `O=C1c2c(O)cc(O)cc2O[C@H](c2ccc(O)c(O)c2)[C@H]1O` [Taxifolin (Dihydroquercetin)] registered a GFP- of 1.02.
`CCC[C@@H]1O[C@@H]2C[C@H]3[C@@H]4CCC5=CC(=O)C=C[C@]5(C)[C@H]4[C@@H](O)C[C@]3(C)[C@]2(C(=O)CO)O1` [Budesonide]: the GFP- was 1.06.
Take `C=C1C(=O)O[C@H]2[C@H]1CC/C(C)=C\CC[C@@]1(C)O[C@@H]21` [(-)-Parthenolide]: the GFP- turned out to be 1.06.
In the case of `CC(C)(C)/[N+]([O-])=C/c1ccc(S(=O)(=O)O)cc1S(=O)(=O)O`, the GFP- turned out to be 1.
Take `Cc1cccc(Nc2ccncc2S(=O)(=O)NC(=O)NC(C)C)c1` [Torasemide]: the GFP- is 1.04.
`CCCNC(=O)Nc1ccc(Oc2ncnc3cc(OC)c(OC)cc23)cc1Cl` yielded a GFP- of 0.97.
The compound `CCCCCCCCCC(=O)N[C@@H](Cc1c[nH]c2ccccc12)C(=O)N[C@H](CC(N)=O)C(=O)N[C@@H](CC(=O)O)C(=O)N[C@@H]1C(=O)NCC(=O)N[C@H](CCCN)C(=O)N[C@@H](CC(=O)O)C(=O)N[C@@H](C)C(=O)N[C@@H](CC(=O)O)C(=O)NCC(=O)N[C@H](CO)C(=O)N[C@@H]([C@@H](C)CC(=O)O)C(=O)N[C@@H](CC(=O)c2ccccc2N)C(=O)O[C@@H]1C` [Daptomycin] returned a GFP- of 1.09.
Consider `O=C(O[C@H]1CN2CCC1CC2)N1CCc2ccccc2[C@@H]1c1ccccc1` [Solifenacin], for which the GFP- was determined as 1.02.
In the case of `c1ccc2c(CCNc3ccc(Nc4ccncc4)cc3)c[nH]c2c1` [Serdemetan], the GFP- was 1.06.
As for `CCOC(=O)CC(=O)N1CCSC1COc1ccccc1OC` (stereo not given) [Moguisteine], the GFP- stood at 1.1.
Regarding `O=C(NC(Cc1cc(O)nc2ccccc12)C(=O)O)c1ccc(Cl)cc1` (stereo not given) [Rebamipide], the GFP- was 1.02.
`CN(C)CCOc1ccc(/C(=C(/CCCl)c2ccccc2)c2ccccc2)cc1` [Toremifene] came in with a GFP- of 0.996.
Compound `Cc1c(C(=O)NN2CCCCC2)nn(-c2ccc(Cl)cc2Cl)c1-c1ccc(Cl)cc1` [Rimonabant] registered a GFP- of 1.01.
In turn, `O[C@@H]1CO[C@H]2[C@@H]1OC[C@@H]2O` [Isosorbide] had a GFP- of 0.881.
Take `CO[C@H]1C[C@@H]2CC[C@@H](C)[C@@](O)(O2)C(=O)C(=O)N2CCCC[C@H]2C(=O)O[C@H]([C@H](C)C[C@@H]2CC[C@@H](OP(C)(C)=O)[C@H](OC)C2)CC(=O)[C@H](C)/C=C(\C)[C@@H](O)[C@@H](OC)C(=O)[C@H](C)C[C@H](C)/C=C/C=C/C=C/1C` [Ridaforolimus, Deforolimus]: the GFP- amounted to 0.681.
`CC(C)(C)OC(=O)N[C@H]1CCCCC/C=C\[C@@H]2C[C@@]2(C(=O)NS(=O)(=O)C2CC2)NC(=O)[C@@H]2C[C@@H](OC(=O)N3Cc4cccc(F)c4C3)CN2C1=O` [Danoprevir] registered a GFP- of 1.12.
The value for `COc1cc2ncnc(Nc3cccc(Cl)c3)c2cc1OC` was 1.01; that for `COc1ccc(C[C@H](NC(=O)[C@H](C)NC(=O)CN2CCOCC2)C(=O)N[C@@H](Cc2ccccc2)C(=O)[C@]2(C)CO2)cc1` was 0.791.
The value for `CCOc1ccn(-c2ccc(F)cc2)c(=O)c1C(=O)Nc1ccc(Oc2ccnc(N)c2Cl)c(F)c1` was 0.736.
The value for `Nc1ccn([C@@H]2CS[C@H](CO)O2)c(=O)n1` [Lamivudine] was 1; that for `C[C@]12CCC3=C4CCC(=O)C=C4CC[C@H]3[C@@H]1CC[C@@]2(O)CC#N` [Dienogest] was 0.899.
The compound `CN1CCN(CCCN2c3ccccc3Sc3ccc(C(F)(F)F)cc32)CC1` [Trifluoperazine] had a GFP- of 0.971.
Turning to `CC(C)NCC(O)COc1ccc(CCOCC2CC2)cc1` (stereo not given) [Betaxolol], the GFP- turned out to be 0.978.
In the case of `O=C1CC(=O)c2c(Cl)c(Cl)c(Cl)c(Cl)c21`, the GFP- stood at 1.09.
With `CO/C(O)=C1\C(C)=NC(C)=C(C(=O)OCCN(C)Cc2ccccc2)C1c1cccc([N+](=O)[O-])c1` (stereo not given) [Nicardipine], the GFP- came out at 1.01.
The value for `NC(Cc1c[nH]c2ccc(O)cc12)C(=O)O` (stereo not given) [5-hydroxytryptophan (5-HTP)] was 1.07.
Regarding `COC1=C(OC)C(=O)C(CCCCCCCCCCO)=C(C)C1=O` [Idebenone], the GFP- was 0.993.
Compound `Cn1c(N2CCCCS2(=O)=O)nc(C(=O)NCc2ccc(F)cc2)c(O)c1=O` returned a GFP- of 0.561.
The compound `CCc1ccc(OCc2ccccc2C(=O)Nc2ccc3nc(C)cc(N)c3c2)cc1` came in with a GFP- of 0.975.
The value for `C[C@H](N[C@@H](CCc1ccccc1)C(=O)O)C(=O)N1CCC[C@H]1C(=O)O` [Enalaprilat] was 1.02.
The value for `Cc1nnc(C(C)C)n1C1CC2CCC(C1)N2CC[C@H](NC(=O)C1CCC(F)(F)CC1)c1ccccc1` (stereo not given in full) [Maraviroc] was 1.17; that for `CC(C)C[C@@H](C(=O)N[C@H](C(=O)OC1CCCC1)c1ccccc1)[C@H](O)C(=O)NO` [Tosedostat] was 1.08.
As for `C#Cc1cccc(Nc2ncnc3cc4c(cc23)OCCOCCOCCO4)c1` [Icotinib], the GFP- is 0.916.
The value for `O=Nc1c(-c2c(O)[nH]c3cc(Br)ccc23)[nH]c2ccccc12` [(3e)-6'-Bromo-2,3'-Biindole-2',3(1h,1'h)-Dione 3-Oxime] was 1.23.
In turn, `CC(=O)C1=C(O)C=C2Oc3c(C(C)=O)c(O)c(C)c(O)c3[C@]2(C)C1=O` [(+)-Usniacin] registered a GFP- of 0.95.
As for `CC(=O)Nc1nc(C)c(-c2ccc(Cl)c(S(=O)(=O)NCCO)c2)s1`, the GFP- was 0.916.
`Cc1ccc(Cl)cc1N(CC(=O)Nc1c(F)cccc1F)S(C)(=O)=O` came in with a GFP- of 1.06.
For the compound `O=C1NC(=O)/C(=C/c2cccc(C(F)(F)F)c2)S1`, the GFP- was found to be 0.979 ± 0.056.
Consider `CC(C)[C@H](N)C(=O)OCC(CO)OCN1C=NC2C(=O)NC(N)=NC21` (stereo not given in full) [Valganciclovir HCl], for which the GFP- turned out to be 0.961.
The value for `CCCCN1CCCCC1C(=O)Nc1c(C)cccc1C` (stereo not given) [Bupivacaine] was 1.13; that for `c1ccc(-c2[nH]ncc2-c2ccnc3ccccc23)nc1` [4-(3-Pyridin-2-Yl-1h-Pyrazol-4-Yl)Quinoline] was 1.27; that for `CC[C@H](C)C(=O)O[C@H]1C[C@@H](C)C=C2C=C[C@H](C)[C@H](CC[C@@H]3C[C@@H](O)CC(=O)O3)[C@H]21` [Lovastatin] was 0.811.
The value for `N#C[C@@H]1C[C@@H]2C[C@@H]2N1C(=O)[C@@H](N)C12CC3CC(CC(O)(C3)C1)C2` [Saxagliptin] was 0.839.
The value for `CC(C)c1cc(C(C)C)c(CC(=O)NS(=O)(=O)Oc2c(C(C)C)cccc2C(C)C)c(C(C)C)c1` [Avasimibe] was 0.842; that for `C[C@@H]1C[C@H]2[C@@H]3CCC4=CC(=O)C=C[C@]4(C)[C@@]3(Cl)[C@@H](O)C[C@]2(C)[C@@]1(OC(=O)c1ccco1)C(=O)CCl` [Mometasone Furoate] was 0.947.
`COc1ccc(O)cc1` [Mequinol]: the GFP- came to 0.927.
The compound `Cc1cc2c(s1)Nc1ccccc1N=C2N1CCN(C)CC1` [Olanzapine] came in with a GFP- of 0.909.
The value for `COc1ccccc1N1CCN(CCCNc2cc(=O)n(C)c(=O)n2C)CC1` [Urapidil Hydrochloride] was 0.921; that for `O=C(Nc1cc2cc[nH]c2cn1)c1ccccc1` was 1.09.
The value for `COc1ccc2cc([C@H](C)C(=O)O)ccc2c1` [Naproxen] was 1.07.
In turn, `O=S(=O)(O)NC1CCCCC1` [Cyclamic Acid] returned a GFP- of 1.21.
In turn, `CCOC(=O)[C@H](CCc1ccccc1)N[C@H]1CS[C@H](c2cccs2)CN(CC(=O)O)C1=O` [Temocapril] had a GFP- of 1.03.
In the case of `CN[C@H](CC(=O)O)C(=O)O` [N-methyl-d-aspartic Acid], the GFP- was found to be 1.09.
In turn, `O=C(N/N=C/c1ccc([N+](=O)[O-])o1)c1ccc(O)cc1` [Nifuroxazide] came in with a GFP- of 0.93.
On to `O=C(c1ccc(Nc2nccc(-c3cc4ccccc4s3)n2)cc1)N1CCC(N2CCCC2)CC1` [IKK-16 (IKK Inhibitor VII)], for which the GFP- came out at 0.887.
The compound `CNC(=O)CN(CCN(CCN(CC(=O)O)CC(=O)NC)CC(=O)O)CC(=O)O` [Omniscan, Gadodiamide hydrate] showed a GFP- of 0.702.
Take `Cc1cnc(C(=O)O)c[n+]1[O-]` [Acipimox]: the GFP- amounted to 1.02.
`O=C1NC(=O)/C(=C\c2ccc(-c3ccc(F)cc3)o2)S1`: the GFP- amounted to 0.981.
Take `Cc1cc(OCc2nnc(SC3CCCC3)n2-c2cccnc2)ccc1-c1ccc(S(C)(=O)=O)cc1`: the GFP- was 0.67.
`CC(C)Oc1ccc2c(=O)c(-c3ccccc3)coc2c1` [Ipriflavone] gave a GFP- of 1.09.
`C[N+](C)(C)C[C@H](O)CC(=O)O` [L-carnitine]: the GFP- is 1.05.
Regarding `Nc1ncnc2[nH]cnc12` [Adenine], the GFP- came to 1.07.
The value for `CO[C@@H]1[C@@H](O[C@H]2O[C@@H](C)[C@H](O[C@@H]3C[C@](C)(O)[C@H](O)[C@@H](C)O3)[C@@H](N(C)C)[C@@H]2O)[C@@H](CC=O)C[C@@H](C)[C@@H](O[C@H]2CC[C@H](N(C)C)[C@H](C)O2)/C=C/C=C/C[C@@H](C)OC(=O)C[C@H]1O` [Spiramycin] was 0.986; that for `CCOC(CN1CCN(CC(C)C(=O)c2ccccc2)CC1)c1ccccc1` (stereo not given) [Eprazinone] was 1.15.

The values are drawn from the supplement of paper PMC11060735.
